Results from one PubChem assay

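HEK-293 cells carrying an ATXN2-luciferase reporter; luminescence signal loss after 24 h of compound exposure, with a parallel cell viability readout. Compounds were tested as a dilution series from about 0.0037 to 57 µM. The number is the fitted half-maximal inhibitory concentration (AC50); a lower value means a more potent inhibitor. Calls come from curve class and activity score: actives score 40–100, while inconclusive compounds (weak, partial, poorly fitted or single-point curves) score 1–39.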

Values are in µM. All entries here are filed as inconclusive. Only part of the assay is shown, chiefly results filed as inconclusive. A potency from a partial, single-point or poor curve is only a rough figure. Activity scores are not listed here.

| SMILES | fitted potency (µM) | curve as filed |
|---|---|---|
| `COc1ccc(OCC(=O)N/N=C/c2cccc3cccnc23)cc1` | 28.18 | inhibitor, partial curve, poor fit |
| `OC[C@@H]1[C@@H](c2ccc(Cl)cc2)C(c2cccc(Cl)c2)=NN1c1ccccc1` | 39.81 | inhibitor, single point |
| `COc1ccc(Oc2c(Cl)cnn(-c3ccc(C)cc3)c2=O)cc1` | 28.18 | inhibitor, single point |
| `Cc1ccc2nc3cc([N+](=O)[O-])cc([N+](=O)[O-])c3cc2c1` | 25.12 | inhibitor, partial curve, poor fit |
| `Cc1nc2c(OCc3ccc(C#N)cc3)cccn2c1N(C)Cc1cccs1` | 28.18 | inhibitor, single point |
| `O=C(CN1C(=O)C2CCCCC2C1=O)Nc1nc(-c2ccccn2)cs1` (centres undefined) | 17.78 | inhibitor, partial curve, poor fit |
| `CN(C)CCNC(=O)c1cccc(-c2cnc3c(NC=O)cc(-c4cccc(C(F)(F)F)c4)cn23)c1` | 35.48 | inhibitor, single point |
| `Cc1ccc(-n2cccn2)c(CN2CCCC(C(=O)c3ccc4c(c3)OCO4)C2)c1` (centres undefined) | 28.18 | inhibitor, partial curve, poor fit |
| `Cc1cc(C)c2c(CC(=O)Nc3ccc(Cl)cn3)coc2c1` | 3.162 | inhibitor, single point |
| `Cc1c(Cl)c([N+](=O)[O-])nn1Cc1ccc(C(=O)N/N=C\c2cc(Cl)ccc2O)o1` | 0.7079 | inhibitor, full curve, poor fit |
| `O=C(c1ccc2c(c1)OCO2)N(Cc1cccs1)C1(C(=O)NC2CCCCC2)CCCCC1` | 25.12 | inhibitor, partial curve, poor fit |
| `Cc1cc(O)c(C(C)C)cc1N=Cc1ccc(N(C)C)cc1` | 3.162 | inhibitor, partial curve, poor fit |
| `CCCCn1c(SCC(=O)Nc2cc(C(F)(F)F)cc(C(F)(F)F)c2)nnc1C(CC)N(C)C` (centres undefined) | 3.162 | inhibitor, single point |
| `O=C(NCCc1cn2ccccc2n1)c1cc(COc2ccc3ncccc3c2)on1` | 25.12 | inhibitor, partial curve, poor fit |
| `Cc1cc(C)c2nc(NNC(=O)c3cc(-c4cccs4)nc4ccccc34)sc2c1` | 6.31 | inhibitor, single point |
| `CCc1nc2c(OCc3ccc(Cl)cc3Cl)cccn2c1N(C=O)Cc1ccc(OC)cc1` | 2.512 | inhibitor, partial curve |
| `CCN(CC)c1ccc(C(=O)N/N=C/c2ccccc2OC(F)F)cc1` | 8.912 | inhibitor, single point |
| `O=C(Nc1nc2cc(Cl)ccc2s1)C1CCCN(S(=O)(=O)c2cccc3cccnc23)C1` (centres undefined) | 28.18 | inhibitor, partial curve, poor fit |
| `CCc1cc2c(=O)c(-c3cnn(-c4ccccc4)c3)coc2c(CN2CCOCC2)c1O` | 1.995 | inhibitor, partial curve, poor fit |
| `CCOC(=O)N1CCN(C(=O)c2ccc(Cn3c(=S)[nH]c4ccc(Br)cc4c3=O)cc2)CC1` | 1.778 | inhibitor, partial curve |
| `Nc1nonc1-n1nnc(C(=O)N/N=C/c2ccccc2O)c1CN1CCCC1` | 10 | inhibitor, partial curve, poor fit |
| `O=C1C(Cl)=C(NCCc2ccccc2)C(=O)c2ccccc21` | 28.18 | inhibitor, partial curve, poor fit |
| `COC(=O)c1ccc(Oc2nc(NC(C)C)nc(N(C)C)n2)cc1` | 3.162 | inhibitor, single point |
| `Cc1nc(N2CCN(c3ccccn3)CC2)c2c(C)c(C(=O)N3CCN(c4ccc(F)cc4)CC3)sc2n1` | 17.78 | inhibitor, partial curve, poor fit |
| `CC1(C)c2[nH]c3ccccc3c2C[C@H]2C(=O)N(Cc3cccc(F)c3)C(=O)N21` | 31.62 | inhibitor, single point |
| `COc1ccccc1N(C)S(=O)(=O)c1ccc(C(=O)Nc2ccc(N3CCOCC3)cc2)cc1` | 17.78 | inhibitor, partial curve |

Once more, the final 2:

| SMILES | fitted potency (µM) | curve as filed |
|---|---|---|
| `CC1(C)c2[nH]c3ccccc3c2C[C@H]2C(=O)N(Cc3cccc(F)c3)C(=O)N21` | 31.62 | inhibitor, single point |
| `COc1ccccc1N(C)S(=O)(=O)c1ccc(C(=O)Nc2ccc(N3CCOCC3)cc2)cc1` | 17.78 | inhibitor, partial curve |

From PubChem BioAssay record AID1745848 (NCATS, 2022).